Data: paper doi:10.1101/2025.11.17.688780
These are yes or no findings as the source states them, for the method shown. Binding seen in cells or lysates may run through a third protein. Here binding means that the protein was enriched with, or labelled near, the bait; the list need not be complete. Where a sequence is shown, tags or fusion partners need not be part of it.

B1: Smc2 D1112A, HA tagged (protein, UniProt P38989 1-1170)
chain: MKVEELIIDGFKSYATRTVITDWDPQFNAITGLNGSGKSNILDAICFVLGIASMSTVRASSLQDLIYKRGQAGVTKASVTIVFDNTDKSNSPIGFTNSPQISVTRQVVLGGTSKYLINGHRAPQQSVLQLFQSVQLNINNPNFLIMQGKITKVLNMKPSEILSLIEEAAGTKMFEDRREKAERTMSKKETKLQENRTLLTEEIEPKLEKLRNEKRMFLEFQSTQTDLEKTERIVVSYEYYNIKHKHTSIRETLENGETRMKMLNEFVKKTSEEIDSLNEDVEEIKLQKEKELHKEGTISKLENKENGLLNEISRLKTSLSIKVENLNDTTEKSKALESEIASSSAKLIEKKSAYANTEKDYKMVQEQLSKQRDLYKRKEELVSTLTTGISSTGAADGGYNAQLAKAKTELNEVSLAIKKSSMKMELLKKELLTIEPKLKEATKDNELNVKHVKQCQETCDKLRARLVEYGFDPSRIKDLKQREDKLKSHYYQTCKNSEYLKRRVTNLEFNYTKPYPNFEASFVHGVVGQLFQIDNDNIRYATALQTCAGGRLFNVVVQDSQTATQLLERGRLRKRVTIIPLDKIYTRPISSQVLDLAKKIAPGKVELAINLIRFDESITKAMEFIFGNSLICEDPETAKKITFHPKIRARSITLQGDVYDPEGTLSGGSRNTSESLLVDIQKYNQIQKQIETIQADLNHVTEELQTQYATSQKTKTIQSDLNLSLHKLDLAKRNLDANPSSQIIARNEEILRDIGECENEIKTKQMSLKKCQEEVSTIEKDMKEYDSDKGSKLNELKKELKLLAKELEEQESESERKYDLFQNLELETEQLSSELDSNKTLLHNHLKSIESLKLENSDLEGKIRGVEDDLVTVQTELNEEKKRLMDIDDELNELETLIKKKQDEKKSSELELQKLVHDLNKYKSNTNNMEKIIEDLRQKHEFLEDFDLVRNIVKQNEGIDLDTYRERSKQLNEKFQELRKKVNPNIMNMIENVEKKEAALKTMIKTIEKDKMKIQETISKLNEYKRETLVKTWEKVTLDFGNIFADLLPNSFAKLVPCEGKDVTQGLEVKVKLGNIWKESLIELSGGQRSLIALSLIMALLQFRPAPMYILAEVDAALDLSHTQNIGHLIKTRFKGSQFIVVSLKEGMFANANRVFRTRFQDGTSVVSIM
B2: Smc2 E1113Q, HA tagged (protein, UniProt P38989 1-1170)
chain: MKVEELIIDGFKSYATRTVITDWDPQFNAITGLNGSGKSNILDAICFVLGIASMSTVRASSLQDLIYKRGQAGVTKASVTIVFDNTDKSNSPIGFTNSPQISVTRQVVLGGTSKYLINGHRAPQQSVLQLFQSVQLNINNPNFLIMQGKITKVLNMKPSEILSLIEEAAGTKMFEDRREKAERTMSKKETKLQENRTLLTEEIEPKLEKLRNEKRMFLEFQSTQTDLEKTERIVVSYEYYNIKHKHTSIRETLENGETRMKMLNEFVKKTSEEIDSLNEDVEEIKLQKEKELHKEGTISKLENKENGLLNEISRLKTSLSIKVENLNDTTEKSKALESEIASSSAKLIEKKSAYANTEKDYKMVQEQLSKQRDLYKRKEELVSTLTTGISSTGAADGGYNAQLAKAKTELNEVSLAIKKSSMKMELLKKELLTIEPKLKEATKDNELNVKHVKQCQETCDKLRARLVEYGFDPSRIKDLKQREDKLKSHYYQTCKNSEYLKRRVTNLEFNYTKPYPNFEASFVHGVVGQLFQIDNDNIRYATALQTCAGGRLFNVVVQDSQTATQLLERGRLRKRVTIIPLDKIYTRPISSQVLDLAKKIAPGKVELAINLIRFDESITKAMEFIFGNSLICEDPETAKKITFHPKIRARSITLQGDVYDPEGTLSGGSRNTSESLLVDIQKYNQIQKQIETIQADLNHVTEELQTQYATSQKTKTIQSDLNLSLHKLDLAKRNLDANPSSQIIARNEEILRDIGECENEIKTKQMSLKKCQEEVSTIEKDMKEYDSDKGSKLNELKKELKLLAKELEEQESESERKYDLFQNLELETEQLSSELDSNKTLLHNHLKSIESLKLENSDLEGKIRGVEDDLVTVQTELNEEKKRLMDIDDELNELETLIKKKQDEKKSSELELQKLVHDLNKYKSNTNNMEKIIEDLRQKHEFLEDFDLVRNIVKQNEGIDLDTYRERSKQLNEKFQELRKKVNPNIMNMIENVEKKEAALKTMIKTIEKDKMKIQETISKLNEYKRETLVKTWEKVTLDFGNIFADLLPNSFAKLVPCEGKDVTQGLEVKVKLGNIWKESLIELSGGQRSLIALSLIMALLQFRPAPMYILDQVDAALDLSHTQNIGHLIKTRFKGSQFIVVSLKEGMFANANRVFRTRFQDGTSVVSIM
B3: Smc2 R58A, HA tagged (protein, UniProt P38989 1-1170)
chain: MKVEELIIDGFKSYATRTVITDWDPQFNAITGLNGSGKSNILDAICFVLGIASMSTVAASSLQDLIYKRGQAGVTKASVTIVFDNTDKSNSPIGFTNSPQISVTRQVVLGGTSKYLINGHRAPQQSVLQLFQSVQLNINNPNFLIMQGKITKVLNMKPSEILSLIEEAAGTKMFEDRREKAERTMSKKETKLQENRTLLTEEIEPKLEKLRNEKRMFLEFQSTQTDLEKTERIVVSYEYYNIKHKHTSIRETLENGETRMKMLNEFVKKTSEEIDSLNEDVEEIKLQKEKELHKEGTISKLENKENGLLNEISRLKTSLSIKVENLNDTTEKSKALESEIASSSAKLIEKKSAYANTEKDYKMVQEQLSKQRDLYKRKEELVSTLTTGISSTGAADGGYNAQLAKAKTELNEVSLAIKKSSMKMELLKKELLTIEPKLKEATKDNELNVKHVKQCQETCDKLRARLVEYGFDPSRIKDLKQREDKLKSHYYQTCKNSEYLKRRVTNLEFNYTKPYPNFEASFVHGVVGQLFQIDNDNIRYATALQTCAGGRLFNVVVQDSQTATQLLERGRLRKRVTIIPLDKIYTRPISSQVLDLAKKIAPGKVELAINLIRFDESITKAMEFIFGNSLICEDPETAKKITFHPKIRARSITLQGDVYDPEGTLSGGSRNTSESLLVDIQKYNQIQKQIETIQADLNHVTEELQTQYATSQKTKTIQSDLNLSLHKLDLAKRNLDANPSSQIIARNEEILRDIGECENEIKTKQMSLKKCQEEVSTIEKDMKEYDSDKGSKLNELKKELKLLAKELEEQESESERKYDLFQNLELETEQLSSELDSNKTLLHNHLKSIESLKLENSDLEGKIRGVEDDLVTVQTELNEEKKRLMDIDDELNELETLIKKKQDEKKSSELELQKLVHDLNKYKSNTNNMEKIIEDLRQKHEFLEDFDLVRNIVKQNEGIDLDTYRERSKQLNEKFQELRKKVNPNIMNMIENVEKKEAALKTMIKTIEKDKMKIQETISKLNEYKRETLVKTWEKVTLDFGNIFADLLPNSFAKLVPCEGKDVTQGLEVKVKLGNIWKESLIELSGGQRSLIALSLIMALLQFRPAPMYILDEVDAALDLSHTQNIGHLIKTRFKGSQFIVVSLKEGMFANANRVFRTRFQDGTSVVSIM
B4: Smc2 S1085R, HA tagged (protein, UniProt P38989 1-1170)
chain: MKVEELIIDGFKSYATRTVITDWDPQFNAITGLNGSGKSNILDAICFVLGIASMSTVRASSLQDLIYKRGQAGVTKASVTIVFDNTDKSNSPIGFTNSPQISVTRQVVLGGTSKYLINGHRAPQQSVLQLFQSVQLNINNPNFLIMQGKITKVLNMKPSEILSLIEEAAGTKMFEDRREKAERTMSKKETKLQENRTLLTEEIEPKLEKLRNEKRMFLEFQSTQTDLEKTERIVVSYEYYNIKHKHTSIRETLENGETRMKMLNEFVKKTSEEIDSLNEDVEEIKLQKEKELHKEGTISKLENKENGLLNEISRLKTSLSIKVENLNDTTEKSKALESEIASSSAKLIEKKSAYANTEKDYKMVQEQLSKQRDLYKRKEELVSTLTTGISSTGAADGGYNAQLAKAKTELNEVSLAIKKSSMKMELLKKELLTIEPKLKEATKDNELNVKHVKQCQETCDKLRARLVEYGFDPSRIKDLKQREDKLKSHYYQTCKNSEYLKRRVTNLEFNYTKPYPNFEASFVHGVVGQLFQIDNDNIRYATALQTCAGGRLFNVVVQDSQTATQLLERGRLRKRVTIIPLDKIYTRPISSQVLDLAKKIAPGKVELAINLIRFDESITKAMEFIFGNSLICEDPETAKKITFHPKIRARSITLQGDVYDPEGTLSGGSRNTSESLLVDIQKYNQIQKQIETIQADLNHVTEELQTQYATSQKTKTIQSDLNLSLHKLDLAKRNLDANPSSQIIARNEEILRDIGECENEIKTKQMSLKKCQEEVSTIEKDMKEYDSDKGSKLNELKKELKLLAKELEEQESESERKYDLFQNLELETEQLSSELDSNKTLLHNHLKSIESLKLENSDLEGKIRGVEDDLVTVQTELNEEKKRLMDIDDELNELETLIKKKQDEKKSSELELQKLVHDLNKYKSNTNNMEKIIEDLRQKHEFLEDFDLVRNIVKQNEGIDLDTYRERSKQLNEKFQELRKKVNPNIMNMIENVEKKEAALKTMIKTIEKDKMKIQETISKLNEYKRETLVKTWEKVTLDFGNIFADLLPNSFAKLVPCEGKDVTQGLEVKVKLGNIWKESLIELRGGQRSLIALSLIMALLQFRPAPMYILDEVDAALDLSHTQNIGHLIKTRFKGSQFIVVSLKEGMFANANRVFRTRFQDGTSVVSIM

target: T1, Brn1-V5 (S. cerevisiae) (UniProt P38170); assay: affinity purification with mass spectrometry
T1 sequence: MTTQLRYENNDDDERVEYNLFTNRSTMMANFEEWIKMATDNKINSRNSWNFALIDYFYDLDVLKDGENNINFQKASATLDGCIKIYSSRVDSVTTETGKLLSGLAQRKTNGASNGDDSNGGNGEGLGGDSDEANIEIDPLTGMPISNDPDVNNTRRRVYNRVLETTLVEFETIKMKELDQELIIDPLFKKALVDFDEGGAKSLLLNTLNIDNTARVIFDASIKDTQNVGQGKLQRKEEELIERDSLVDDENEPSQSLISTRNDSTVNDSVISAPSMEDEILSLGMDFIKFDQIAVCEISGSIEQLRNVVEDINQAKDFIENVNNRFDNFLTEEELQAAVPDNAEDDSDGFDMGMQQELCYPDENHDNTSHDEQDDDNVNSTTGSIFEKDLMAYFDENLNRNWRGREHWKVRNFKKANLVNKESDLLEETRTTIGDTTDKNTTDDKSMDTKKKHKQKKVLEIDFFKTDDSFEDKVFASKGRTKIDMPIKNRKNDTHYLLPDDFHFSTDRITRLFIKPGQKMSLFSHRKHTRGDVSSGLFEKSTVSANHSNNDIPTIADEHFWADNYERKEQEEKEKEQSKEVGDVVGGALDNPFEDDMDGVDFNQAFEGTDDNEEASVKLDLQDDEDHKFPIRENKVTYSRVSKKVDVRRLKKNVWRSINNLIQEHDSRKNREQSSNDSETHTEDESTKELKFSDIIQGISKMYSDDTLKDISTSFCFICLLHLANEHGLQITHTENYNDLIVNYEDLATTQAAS

binding, binds:
B1
B2
B3
B4
